# At least one compound was matched to its structure with a doubt left. Square brackets hold non-standard residues; d marks the D form. Peptide text beside a SMILES is read from it. Phe(4-COOH) = N[C@@H](Cc1ccc(C(=O)O)cc1)C(=O)O; 2Nal = N[C@@H](Cc1ccc2ccccc2c1)C(=O)O; cisHyp = O=C(O)[C@@H]1C[C@H](O)CN1
# Tests used:
# p-Tau = test: ex-vivo brain slice assay, Western blot of p-Tau; type: cell-based, rat; conditions: 2 µM, 5 hours, along the rostro-caudal axis
# Aβ = test: ex-vivo brain slice assay, Western blot of Aβ; type: cell-based, rat; conditions: 2 µM, 5 hours, along the rostro-caudal axis
structure (smiles),measurement,setting,value
"CC(=O)N[C@@H](Cc1ccc2ccccc2c1)C(=O)N[C@@H](Cc1ccc(C(=O)O)cc1)C(=O)N1C[C@@H](O)C[C@H]1C(N)=O [Tri01, 4-((S)-2-((S)-2-acetamido-3-(naphthalen-2-yl)propanamido)-3-((2S,4S)-2-carbamoyl-4-hydroxypyrrolidin-1-yl)-3-oxopropyl)benzoate] (Ac-[2Nal]-[Phe(4-COOH)]-[cisHyp]-NH2)","p-Tau levels, treated vs control",p-Tau,did not show any change
same,"Aβ expression, treated vs control",Aβ,did not show any change

# Source: patent EP3382005A2, “EX VIVO MODEL FOR NEURODEGENERATIVE DISEASES” (Neuro-Bio Ltd, priority 2017, dated 2018)
